Data from publication PMC11560011.
No constants are given. Whether binding was seen depends on the method and setting. In cells and extracts the contact can be indirect. These calls come from enrichment with a bait or labelling near it, and not all partners need be listed. Sequences can lack the tags named with a protein.

Amino acid sequences for entries named in this document (tags omitted). A change or cut given only in a name is not applied to a line headed by its entry.
UniProt C4LX90: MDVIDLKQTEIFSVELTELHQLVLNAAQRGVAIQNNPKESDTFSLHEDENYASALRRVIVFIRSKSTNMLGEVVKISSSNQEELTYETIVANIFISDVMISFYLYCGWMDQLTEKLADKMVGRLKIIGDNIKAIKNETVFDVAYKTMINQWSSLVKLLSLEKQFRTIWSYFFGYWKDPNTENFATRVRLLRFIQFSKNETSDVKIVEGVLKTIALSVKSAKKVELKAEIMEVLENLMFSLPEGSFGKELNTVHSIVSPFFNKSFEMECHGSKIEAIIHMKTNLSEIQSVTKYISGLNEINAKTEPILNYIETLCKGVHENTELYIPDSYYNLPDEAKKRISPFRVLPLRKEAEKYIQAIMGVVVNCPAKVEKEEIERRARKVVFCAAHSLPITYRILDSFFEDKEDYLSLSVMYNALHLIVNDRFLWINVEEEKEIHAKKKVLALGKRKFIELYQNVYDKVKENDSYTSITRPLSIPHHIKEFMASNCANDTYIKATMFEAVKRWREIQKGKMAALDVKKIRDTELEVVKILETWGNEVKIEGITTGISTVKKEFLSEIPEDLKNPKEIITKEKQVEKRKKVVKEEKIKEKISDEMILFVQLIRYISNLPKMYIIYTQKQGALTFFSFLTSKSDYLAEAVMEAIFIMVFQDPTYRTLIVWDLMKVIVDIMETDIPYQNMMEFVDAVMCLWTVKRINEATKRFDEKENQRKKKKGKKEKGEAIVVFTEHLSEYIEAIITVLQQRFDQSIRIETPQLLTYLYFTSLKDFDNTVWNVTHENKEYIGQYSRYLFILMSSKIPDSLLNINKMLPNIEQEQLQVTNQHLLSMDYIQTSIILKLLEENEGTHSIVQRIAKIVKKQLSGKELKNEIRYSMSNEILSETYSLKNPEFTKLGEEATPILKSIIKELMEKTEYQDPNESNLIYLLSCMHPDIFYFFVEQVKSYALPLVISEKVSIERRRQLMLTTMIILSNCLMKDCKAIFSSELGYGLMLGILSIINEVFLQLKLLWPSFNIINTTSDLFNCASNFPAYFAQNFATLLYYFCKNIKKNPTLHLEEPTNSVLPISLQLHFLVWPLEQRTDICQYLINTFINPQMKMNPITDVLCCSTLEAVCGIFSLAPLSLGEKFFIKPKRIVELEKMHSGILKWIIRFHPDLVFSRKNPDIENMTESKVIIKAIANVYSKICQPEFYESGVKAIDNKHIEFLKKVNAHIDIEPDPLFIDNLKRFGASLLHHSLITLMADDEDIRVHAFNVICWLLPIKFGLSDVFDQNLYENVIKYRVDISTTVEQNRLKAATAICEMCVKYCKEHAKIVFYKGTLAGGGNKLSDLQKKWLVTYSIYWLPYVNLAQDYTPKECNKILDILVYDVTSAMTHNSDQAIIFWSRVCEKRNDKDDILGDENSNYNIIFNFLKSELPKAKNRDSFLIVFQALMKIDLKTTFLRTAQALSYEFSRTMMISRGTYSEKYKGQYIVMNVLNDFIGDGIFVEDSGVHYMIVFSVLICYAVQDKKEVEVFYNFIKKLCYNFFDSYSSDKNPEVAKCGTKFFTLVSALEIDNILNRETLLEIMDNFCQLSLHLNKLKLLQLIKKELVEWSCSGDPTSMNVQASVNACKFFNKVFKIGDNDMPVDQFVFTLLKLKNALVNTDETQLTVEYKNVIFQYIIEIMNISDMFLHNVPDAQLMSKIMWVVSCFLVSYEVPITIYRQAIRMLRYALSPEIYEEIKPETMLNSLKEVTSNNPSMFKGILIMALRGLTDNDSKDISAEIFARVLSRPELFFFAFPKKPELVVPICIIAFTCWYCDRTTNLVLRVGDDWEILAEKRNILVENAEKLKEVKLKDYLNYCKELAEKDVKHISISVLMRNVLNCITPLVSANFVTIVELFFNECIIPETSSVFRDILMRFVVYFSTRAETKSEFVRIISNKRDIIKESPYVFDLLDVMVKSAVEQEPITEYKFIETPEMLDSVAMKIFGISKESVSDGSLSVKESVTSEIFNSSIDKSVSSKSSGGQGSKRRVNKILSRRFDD
UniProt C4MA07: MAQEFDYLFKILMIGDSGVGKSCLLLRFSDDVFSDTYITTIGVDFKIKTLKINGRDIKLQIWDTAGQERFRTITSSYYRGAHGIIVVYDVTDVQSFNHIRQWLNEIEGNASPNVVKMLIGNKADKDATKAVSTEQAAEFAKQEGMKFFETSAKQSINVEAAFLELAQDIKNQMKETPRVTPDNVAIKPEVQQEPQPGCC
UniProt C4M3R0: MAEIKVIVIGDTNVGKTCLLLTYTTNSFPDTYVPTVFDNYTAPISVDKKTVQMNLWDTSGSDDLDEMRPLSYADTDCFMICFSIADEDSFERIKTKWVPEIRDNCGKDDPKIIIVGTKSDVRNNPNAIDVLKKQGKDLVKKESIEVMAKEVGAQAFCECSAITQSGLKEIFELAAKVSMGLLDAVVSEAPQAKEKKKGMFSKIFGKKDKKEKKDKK
UniProt C4LY69: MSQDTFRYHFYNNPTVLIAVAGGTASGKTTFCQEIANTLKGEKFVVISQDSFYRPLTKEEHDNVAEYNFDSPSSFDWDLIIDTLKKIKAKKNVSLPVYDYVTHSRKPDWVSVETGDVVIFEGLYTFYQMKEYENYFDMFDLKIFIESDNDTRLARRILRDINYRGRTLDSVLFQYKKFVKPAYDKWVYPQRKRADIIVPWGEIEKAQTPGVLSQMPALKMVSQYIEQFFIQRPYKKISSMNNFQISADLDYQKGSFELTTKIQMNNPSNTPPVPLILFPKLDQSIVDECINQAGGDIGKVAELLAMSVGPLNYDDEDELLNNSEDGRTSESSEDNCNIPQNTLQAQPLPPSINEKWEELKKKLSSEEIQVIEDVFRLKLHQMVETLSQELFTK
UniProt C4MAI6: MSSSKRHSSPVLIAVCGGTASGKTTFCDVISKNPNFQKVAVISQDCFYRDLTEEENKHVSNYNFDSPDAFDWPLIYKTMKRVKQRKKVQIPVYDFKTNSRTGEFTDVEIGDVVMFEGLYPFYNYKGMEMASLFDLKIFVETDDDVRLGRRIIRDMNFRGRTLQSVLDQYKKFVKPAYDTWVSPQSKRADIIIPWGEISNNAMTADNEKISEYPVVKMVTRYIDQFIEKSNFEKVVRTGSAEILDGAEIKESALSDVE
UniProt Q24814: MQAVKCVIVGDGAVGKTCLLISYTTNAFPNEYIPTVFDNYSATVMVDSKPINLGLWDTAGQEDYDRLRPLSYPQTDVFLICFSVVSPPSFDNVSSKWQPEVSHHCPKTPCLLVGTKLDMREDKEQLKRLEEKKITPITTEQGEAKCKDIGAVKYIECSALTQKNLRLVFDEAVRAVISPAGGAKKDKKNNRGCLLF

T1: HA-EhRacM (EhRacM tagged with HA at the N-terminus) (Entamoeba histolytica) (UniProt C4M9S3)
T1 sequence: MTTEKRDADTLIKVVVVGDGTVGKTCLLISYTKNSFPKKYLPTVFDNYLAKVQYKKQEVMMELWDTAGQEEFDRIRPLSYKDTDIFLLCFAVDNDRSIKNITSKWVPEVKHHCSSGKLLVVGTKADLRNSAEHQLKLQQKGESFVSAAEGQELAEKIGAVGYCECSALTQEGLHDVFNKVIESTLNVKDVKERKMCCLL


Biological target: T1, HA-EhRacM (EhRacM tagged with HA at the N-terminus) (Entamoeba histolytica)
Test: affinity purification with mass spectrometry; trophozoites cross-linked with DSP (RT, 30 min), lysed in 50 mM Tris-HCl pH 7.5, 150 mM NaCl, 1% Triton X-100; precleared with Protein G Sepharose; HA-tagged bait captured on anti-HA agarose (clone HA-7) at 4°C for 3.5 h, eluted with HA peptide …; compared with the pEhEx-HA mock strain

Molecule | binding
RING-type domain-containing protein (EHI_013240) (from UniProt C4LX90 1-2020) | binds
Rab family GTPase (EhRab1B) (EHI_146510) (from UniProt C4MA07 1-199) | binds
Rho small GTPase (EHI_146180) (from UniProt C4M3R0) | binds
Uridine/cytidine kinase (EHI_051730) (from UniProt C4LY69) (enzyme) | binds

Continued, values first:

binding | Molecule
binds | Uridine/cytidine kinase (EHI_196580) (from UniProt C4MAI6) (enzyme)
binds | Rho small GTPase (EHI_181250) (from UniProt Q24814 1-196)
binds | Rho GDI (EHI_185440)

Biological target: T1, HA-EhRacM (EhRacM tagged with HA at the N-terminus) (Entamoeba histolytica)
Test: as above
Remark: another data set of the same source

binding | Molecule
binds | E3 ubiquitin-protein ligase listerin (EHI_190430) (enzyme, UniProt C4M9T6 1-1407) MISASSVLNDETLFLLKKFQKSNETTIIKTLDELKRNILLEPFISTKKEQQAFSLHFSNIFTTLSTHKSSNVRLNLFICLSDGILQSPQGKNMISFCISEIIPWWLLCCHDSVKEISEAAKKALNILSFEGRQKVITSNISQILRLVSSNEYDLISRMGCLATILPNINISKLSSYGKSHLENSIKSLIESYGSITNEVYFSSIDAALITCNFIVMERFESLKNIIVKTIDELQPFSKYSKQLFLCITSLLENGAIFNEEFYNKIIQYISTACLGSLYVFPTLKRLLPFIKEKELEKKYIEGVFKAIGDSHIRGPQRAVVILHYFESIKYFKYTNINELIEIMKLLLNDPGSIMIDSGYSSMGIFLTKLNETKEIQGVLSSAVTYLRRSEEKEYLIHLNCMKFIVDKCIKNEFTQGFSYDLLKTIIDKNENDHFFNDNEIDLIIFILQKYPATEEVHQMIVRQFQHIFMLSIEENINEFDIINDTVEINDEFLSYVIKMEDLLIQSISFEPSTSIGYLLNQMFFNLFPKHYALNHLNYLRLFINKLKEQQFIQTIVLQINPLIQLLLHSFKSSKDIVQSIISISPRLLTPQQLTELLFTNSINHLQVLLNVDLINYLIKSTINSKELLLHIIKSITSPDIFLPIHQPIRNVLLKLLPSLISYIGIEPIHEMLKSLLLSPNCTSFCISLTSEIPPLRNLLINDIKLLLPLSSFISLIPSYAQNIKSPLLIPMPFINSSEYPHYNNTLSLLVKLYHLNNEEIKEDNEYIEYWLFDSYQKLTNRISVEIPHLQQLILLQYLFKKNEIEQYLIFHIINQLSSWINLSKESIEYLAHLFDSSTSYSIRFFLSTYLSPLHIDWLEKKVNIIIKKFFMVNTQSDPQGLKELSILYPLIFFPTHLKMVFKYIFSLEITSELELPFLHILHYVFSSSCSLCFESLENEESLSLIYQFLLKILTSSVSSNLMKRGALQVSQILITHSLPPKLLTSESEGIQLSFKISLIDFIVNSIINKSNTQLISELLLQTDLLAEIDFMSDSMRKYIPELFKILKGKDSIIVKICTGYLIGASMNFKSDETFIDFDDNEQQKYHPLPPSLEEYLDKAIESFSQFNTLNKTTLIIFILGMLRKIKDSSTEYRSWIVAYLQAHHFELFINNLYTLLPDQHVPLTLSSVLSLLHSFINGEDEDENQLLTKQNENQILNILASYCMFVIVQSFPNVVRQWCLSLRKSAPKMVKKFFERNICPFILQEEVQKILSWKETDDFILRLQLDGKAVTVVYKNDELVFESQLIFPSTYPLDMITVNVASNKVSVSEAKSHLYKRMLTMNLMTRDLGIIDACLLWKQQLDRQFDNSDACPICYSLFYLRTTTIPNVACKCCRKKFHKQCIFGWFRSTGRHDCPLCTRNFYGENKN
